From PMC11667810
Results are given in words; binding and its absence hold for the method and conditions named. In cells and extracts the contact can be indirect. Some entries that bind do so weakly or less than the wild type.

The chains behind the UniProt entries cited, without tags or fusion partners.
UniProt Q61221: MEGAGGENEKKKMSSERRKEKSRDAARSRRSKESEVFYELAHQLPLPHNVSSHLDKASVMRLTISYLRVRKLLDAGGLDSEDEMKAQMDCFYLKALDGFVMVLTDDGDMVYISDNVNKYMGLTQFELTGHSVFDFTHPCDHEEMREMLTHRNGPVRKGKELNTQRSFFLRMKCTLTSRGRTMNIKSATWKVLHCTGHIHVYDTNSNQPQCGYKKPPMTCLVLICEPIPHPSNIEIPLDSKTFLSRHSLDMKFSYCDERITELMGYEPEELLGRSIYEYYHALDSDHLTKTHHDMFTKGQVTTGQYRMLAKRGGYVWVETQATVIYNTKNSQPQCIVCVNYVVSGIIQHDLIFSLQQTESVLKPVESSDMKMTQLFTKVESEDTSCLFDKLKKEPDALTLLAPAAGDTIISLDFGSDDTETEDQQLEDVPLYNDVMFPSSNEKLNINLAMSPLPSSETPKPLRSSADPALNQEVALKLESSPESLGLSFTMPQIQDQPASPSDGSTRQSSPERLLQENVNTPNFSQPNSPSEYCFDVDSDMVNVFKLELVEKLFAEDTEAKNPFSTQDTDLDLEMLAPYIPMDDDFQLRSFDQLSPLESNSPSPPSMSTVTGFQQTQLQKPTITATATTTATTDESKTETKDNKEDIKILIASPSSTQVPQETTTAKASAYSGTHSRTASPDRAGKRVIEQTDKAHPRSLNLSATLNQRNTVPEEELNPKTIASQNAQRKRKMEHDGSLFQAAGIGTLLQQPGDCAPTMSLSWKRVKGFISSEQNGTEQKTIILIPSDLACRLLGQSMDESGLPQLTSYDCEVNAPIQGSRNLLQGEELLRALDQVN
UniProt Q61696: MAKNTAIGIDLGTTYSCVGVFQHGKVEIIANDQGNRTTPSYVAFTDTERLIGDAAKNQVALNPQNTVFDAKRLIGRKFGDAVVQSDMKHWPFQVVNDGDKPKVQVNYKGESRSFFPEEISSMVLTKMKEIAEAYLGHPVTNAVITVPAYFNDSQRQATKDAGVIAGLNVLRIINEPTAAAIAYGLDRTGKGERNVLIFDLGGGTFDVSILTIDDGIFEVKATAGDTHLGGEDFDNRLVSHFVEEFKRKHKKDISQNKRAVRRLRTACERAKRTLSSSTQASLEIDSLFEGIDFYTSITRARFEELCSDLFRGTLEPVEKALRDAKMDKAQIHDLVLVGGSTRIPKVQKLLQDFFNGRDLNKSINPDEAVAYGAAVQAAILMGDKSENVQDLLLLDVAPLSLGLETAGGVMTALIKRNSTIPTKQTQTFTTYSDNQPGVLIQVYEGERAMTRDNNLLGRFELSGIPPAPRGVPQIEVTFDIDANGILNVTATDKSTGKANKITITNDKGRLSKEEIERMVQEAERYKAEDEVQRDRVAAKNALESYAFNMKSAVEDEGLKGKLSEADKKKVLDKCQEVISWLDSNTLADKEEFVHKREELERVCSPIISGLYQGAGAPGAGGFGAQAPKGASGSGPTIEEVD

Biological target: Hypoxia-inducible factor 1-alpha (mouse (endogenous in bEnd.3)) (UniProt Q61221)
Assay: co-IP; lysates of bEnd.3 and heat-acclimated bEnd.3HA cells (treated with si-NC, si-Hif-1α or si-Hspa1a); 2 μg anti-HIF-1α or anti-HSP70 antibody overnight at 4°C, homologous IgG as control, Protein A/G 3 h at 4°C; immunoblot with anti-HIF-1α and anti-HSP70

binding: binds
Substance: Heat shock protein 70 (from UniProt Q61696 1-641)
